# The other results are listed elsewhere or left out.
# Legend:
# Assay in all cases: glycan array binding signal (z-score within array); higher = stronger binding
# Settings in all cases: glycan notation: IUPAC condensed, linker removed
# [1] = molecular target: Gal(b1-4)GlcNAc(b1-3)Gal(b1-4)GlcNAc(b1-6)[Gal(b1-3)]GalNAc
# Summary of the method: (§1)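 Columns mapping to the same glycan were averaged after glycan names were converted to IUPAC-condensed notation. The data come from 3228 arrays in the Consortium for Functional Glycomics database, limited to those with an available protein sequence. Binding is reported as a within-array Z-score averaged across arrays of one protein sequence and across linkers.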
# [2] = molecular target: Gal(b1-4)GlcNAc(b1-3)Gal(b1-4)[Fuc(a1-3)]GlcNAc(b1-3)Gal(b1-4)[Fuc(a1-3)]GlcNAc
# Summary of the method: as §1
# [3] = molecular target: Gal(b1-4)GlcNAc(b1-3)GalNAc
# Summary of the method: as §1
# [4] = molecular target: Gal(b1-4)GlcNAc(b1-3)[Fuc(a1-3)GlcNAc(b1-6)]Gal(b1-4)Glc
# Summary of the method: as §1
# [5] = molecular target: Gal(b1-4)GlcNAc(b1-3)[Gal(b1-4)GlcNAc(b1-6)]Gal(b1-4)GlcNAc
# Summary of the method: as §1
# [6] = molecular target: Gal(b1-4)GlcNAc(b1-3)[GlcNAc(b1-6)]Gal(b1-4)GlcNAc
# Summary of the method: as §1
# [7] = molecular target: Gal(b1-4)GlcNAc(b1-6)Gal(b1-4)GlcNAc
# Summary of the method: as §1
# [8] = molecular target: Gal(b1-4)GlcNAc(b1-6)GalNAc
# Summary of the method: as §1
# [9] = molecular target: Gal(b1-4)GlcNAc(b1-6)[Gal(b1-3)]GalNAc
# Summary of the method: as §1
# [10] = molecular target: Gal(b1-4)GlcNAc(b1-6)[Gal(b1-4)GlcNAc(b1-3)]GalNAc
# Summary of the method: as §1
# Gal(b1-4)GlcNAc6P = molecular target: Gal(b1-4)GlcNAc6P
# Summary of the method: as §1
# Gal(b1-6)Gal = molecular target: Gal(b1-6)Gal
# Summary of the method: as §1
# Gal3S(b1-3)GalNAc = molecular target: Gal3S(b1-3)GalNAc
# Summary of the method: as §1
# Gal3S(b1-3)GlcNAc = molecular target: Gal3S(b1-3)GlcNAc
# Summary of the method: as §1
# [11] = molecular target: Gal3S(b1-3)[Fuc(a1-4)]GlcNAc
# Summary of the method: as §1
# Gal3S(b1-4)Glc = molecular target: Gal3S(b1-4)Glc
# Summary of the method: as §1
# Gal3S(b1-4)Glc6S = molecular target: Gal3S(b1-4)Glc6S
# Summary of the method: as §1
# Gal3S(b1-4)GlcNAc = molecular target: Gal3S(b1-4)GlcNAc
# Summary of the method: as §1
# [12] = molecular target: Gal3S(b1-4)[Fuc(a1-3)]Glc6S
# Summary of the method: as §1
# [13] = molecular target: Gal3S(b1-4)[Fuc(a1-3)]GlcNAc
# Summary of the method: as §1
# [14] = molecular target: Gal3S(b1-4)[Fuc(a1-3)]GlcNAc6S
# Summary of the method: as §1
# Gal3S4S(b1-4)GlcNAc = molecular target: Gal3S4S(b1-4)GlcNAc
# Summary of the method: as §1
# Gal3S6S(b1-4)GlcNAc = molecular target: Gal3S6S(b1-4)GlcNAc
# Summary of the method: as §1
# Gal3S6S(b1-4)GlcNAc6S = molecular target: Gal3S6S(b1-4)GlcNAc6S
# Summary of the method: as §1
# Gal4S(b1-4)GlcNAc = molecular target: Gal4S(b1-4)GlcNAc
# Summary of the method: as §1
# Gal4S6S(b1-4)GlcNAc = molecular target: Gal4S6S(b1-4)GlcNAc
# Summary of the method: as §1
# Gal6P(b1-4)GlcNAc = molecular target: Gal6P(b1-4)GlcNAc
# Summary of the method: as §1
# Gal6S(b1-3)GlcNAc = molecular target: Gal6S(b1-3)GlcNAc
# Summary of the method: as §1
# Gal6S(b1-3)GlcNAc6S = molecular target: Gal6S(b1-3)GlcNAc6S
# Summary of the method: as §1
# Gal6S(b1-4)Glc = molecular target: Gal6S(b1-4)Glc
# Summary of the method: as §1
# Gal6S(b1-4)Glc6S = molecular target: Gal6S(b1-4)Glc6S
# Summary of the method: as §1
# Gal6S(b1-4)GlcNAc = molecular target: Gal6S(b1-4)GlcNAc
# Summary of the method: as §1
# Gal6S(b1-4)GlcNAc6S = molecular target: Gal6S(b1-4)GlcNAc6S
# Summary of the method: as §1
# GalNAc(a1-3)Gal = molecular target: GalNAc(a1-3)Gal
# Summary of the method: as §1
# GalNAc(a1-3)GalNAc = molecular target: GalNAc(a1-3)GalNAc
# Summary of the method: as §1
# [15] = molecular target: GalNAc(a1-3)GalNAc(b1-3)Gal(a1-4)Gal(b1-4)Glc
# Summary of the method: as §1
# [16] = molecular target: GalNAc(a1-3)GalNAc(b1-3)Gal(a1-4)Gal(b1-4)GlcNAc
# Summary of the method: as §1
# GalNAc(b1-3)Gal = molecular target: GalNAc(b1-3)Gal
# Summary of the method: as §1
# [17] = molecular target: GalNAc(b1-3)Gal(a1-4)Gal(b1-4)GlcNAc
# Summary of the method: as §1
# [18] = molecular target: GalNAc(b1-3)Gal(a1-4)Gal(b1-4)GlcNAc(b1-3)Gal(b1-4)Glc
# Summary of the method: as §1
# [19] = molecular target: GalNAc(b1-3)Gal(a1-6)Gal(b1-4)Glc
# Summary of the method: as §1
# GalNAc(b1-3)GalNAc = molecular target: GalNAc(b1-3)GalNAc
# Summary of the method: as §1
# GalNAc(b1-3)GlcNAc = molecular target: GalNAc(b1-3)GlcNAc
# Summary of the method: as §1
# GalNAc(b1-4)Gal(b1-4)Glc = molecular target: GalNAc(b1-4)Gal(b1-4)Glc
# Summary of the method: as §1
# GalNAc(b1-4)GlcNAc = molecular target: GalNAc(b1-4)GlcNAc
# Summary of the method: as §1
binder,measurement,setting,value
"YghJ (Escherichia coli), E3PJ90 (protein) MNKKFKYKKSLLAAILSATLLAGCDGGGSGSSSDTPPVDSGTGSLPEVKPDPTPNPEPTPEPTPDPEPTPEPIPDPEPTPEPEPEPVPTKTGYLTLGGSQRVTGATCNGESSDGFTFKPGEDVTCVAGNTTIATFNTQSEAARSLRAVEKVSFSLEDAQELAGSDDKKSNAVSLVTSSNSCPANTEQVCLTFSSVIESKRFDSLYKQIDLAPEEFKKLVNEEVENNAATDKAPSTHTSPVVPVTTPGTKPDLNASFVSANAEQFYQYQPTEIILSEGRLVDSQGYGVAGVNYYTNSGRGVTGENGEFSFSWGEAISFGIDTFELGSVRGNKSTIALTELGDEVRGANIDQLIHRYSTTGQNNTRVVPDDVRKVFAEYPNVINEIINLSLSNGATLGEGEQVVNLPNEFIEQFNTGQAKEIDTAICAKTDGCNEARWFSLTTRNVNDGQIQGVINKLWGVDTNYKSVSKFHVFHDSTNFYGSTGNARGQAVVNISNAAFPILMARNDKNYWLAFGEKRAWDKNELAYITEAPSIVRPENVTRETASFNLPFISLGQVGDGKLMVIGNPHYNSILRCPNGYSWNGGVNKDGQCTLNSDPDDMKNFMENVLRYLSNDRWLPDAKSSMTVGTNLETVYFKKHGQVLGNSAPFAFHKDFTGITVKPMTSYGNLNPDEVPLLILNGFEYVTQWGSDPYSIPLRADTSKPKLTQQDVTDLIAYMNKGGSVLIMENVMSNLKEESASGFVRLLDAAGLSMALNKSVVNNDPQGYPDRVRQRRSTPIWVYERYPAVDGKPPYTIDDTTKEVIWKYQQENKPDDKPKLEVASWQEEVEGKQVTQFAFIDEADHKTPESLAAAKQRILDAFPGLEVCKDSDYHYEVNCLEYRPGTDVPVTGGMYVPQYTQLDLSADTAKAMLQAADLGTNIQRLYQHELYFRTNGRQGERLNSVDLERLYQNMSVWLWNETKYRYEEGKEDELGFKTFTEFLNCYTNNAYVGTQCSAELKKSLIDNKMIYGEESSKAGMMNPSYPLNYMEKPLTRLMLGRSWWDLNIKVDVEKYPGVVNTNGETVTQNINLYSAPTKWFAGNMQSTGLWAPAQQEVSIESKSTVPVTVTVALADDLTGREKHEVSLNRPPRVTKTYDLKANDKVTFKVPYGGLIYIKGDSKEVQSADFTFTGVVKAPFYKDGKWQHDLNSPAPLGELESASFVYTTPKKNLNASNYTGGLEQFANDLDTFASSMNDFYGRDSEDGKHRMFTYKNLPGHKHRFANDVQISIGDAHSGYPVMNSSFSPNSTTLPTTPLNDWLIWHEVGHNAAETPLTVPGATEVANNVLALYMQDRYLGKMNRVADDITVAPEYLEESNGQAWARGGAGDRLLMYAQLKEWAEKNFDIKKWYPDGTPLPEFYSEREGMKGWNLFQLMHRKARGDEVSNDKFGGKNYCAESNGNAADTLMLCASWVAQTDLSEFFKKWNPGANAYQLPGASEMSFEGGVSQSAYNTLASLDLPKPEQGPETINQVTEHKMSAE",glycan array binding signal (z-score),[1],-0.193
same,glycan array binding signal (z-score),[2],-1.28
same,glycan array binding signal (z-score),[3],-0.511
same,glycan array binding signal (z-score),[4],-0.481
same,glycan array binding signal (z-score),[5],0.12
same,glycan array binding signal (z-score),[6],-0.471
same,glycan array binding signal (z-score),[7],-0.433
same,glycan array binding signal (z-score),[8],-0.103
same,glycan array binding signal (z-score),[9],0.315
same,glycan array binding signal (z-score),[10],-0.57
same,glycan array binding signal (z-score),Gal(b1-4)GlcNAc6P,-0.299
same,glycan array binding signal (z-score),Gal(b1-6)Gal,-1.06
same,glycan array binding signal (z-score),Gal3S(b1-3)GalNAc,-0.856
same,glycan array binding signal (z-score),Gal3S(b1-3)GlcNAc,0.995
same,glycan array binding signal (z-score),[11],-0.314
same,glycan array binding signal (z-score),Gal3S(b1-4)Glc,0.664
same,glycan array binding signal (z-score),Gal3S(b1-4)Glc6S,-0.371
same,glycan array binding signal (z-score),Gal3S(b1-4)GlcNAc,-0.894
same,glycan array binding signal (z-score),[12],0.345
same,glycan array binding signal (z-score),[13],-0.523
same,glycan array binding signal (z-score),[14],0.478
same,glycan array binding signal (z-score),Gal3S4S(b1-4)GlcNAc,-0.484
same,glycan array binding signal (z-score),Gal3S6S(b1-4)GlcNAc,-0.36
same,glycan array binding signal (z-score),Gal3S6S(b1-4)GlcNAc6S,1.19
same,glycan array binding signal (z-score),Gal4S(b1-4)GlcNAc,1.09
same,glycan array binding signal (z-score),Gal4S6S(b1-4)GlcNAc,-1.43
same,glycan array binding signal (z-score),Gal6P(b1-4)GlcNAc,0.52
same,glycan array binding signal (z-score),Gal6S(b1-3)GlcNAc,0.437
same,glycan array binding signal (z-score),Gal6S(b1-3)GlcNAc6S,2.04
same,glycan array binding signal (z-score),Gal6S(b1-4)Glc,0.441
same,glycan array binding signal (z-score),Gal6S(b1-4)Glc6S,-0.07
same,glycan array binding signal (z-score),Gal6S(b1-4)GlcNAc,1.31
same,glycan array binding signal (z-score),Gal6S(b1-4)GlcNAc6S,-0.024
same,glycan array binding signal (z-score),GalNAc(a1-3)Gal,0.563
same,glycan array binding signal (z-score),GalNAc(a1-3)GalNAc,0.791
same,glycan array binding signal (z-score),[15],-0.377
same,glycan array binding signal (z-score),[16],-0.101
same,glycan array binding signal (z-score),GalNAc(b1-3)Gal,1.19
same,glycan array binding signal (z-score),[17],0.022
same,glycan array binding signal (z-score),[18],-1.3
same,glycan array binding signal (z-score),[19],-1.22
same,glycan array binding signal (z-score),GalNAc(b1-3)GalNAc,-1.25
same,glycan array binding signal (z-score),GalNAc(b1-3)GlcNAc,0.327
same,glycan array binding signal (z-score),GalNAc(b1-4)Gal(b1-4)Glc,-0.229
same,glycan array binding signal (z-score),GalNAc(b1-4)GlcNAc,1.36
